Assay results as given in PMC7807754, “A novel protein encoded by circular SMO RNA is essential for Hedgehog signaling activation and glioblastoma tumorigenicity” (Genome Biology, 2021).
These are yes or no findings as the source states them, for the method shown. In cells and extracts the contact can be indirect. Binding calls can cover weak binding; strength is not graded here. Tags and fused reporters may be left off the sequences shown.

Molecular target: T1, SMO-193a.a.-3XFlag (human) (UniProt Q99835)
T1 sequence: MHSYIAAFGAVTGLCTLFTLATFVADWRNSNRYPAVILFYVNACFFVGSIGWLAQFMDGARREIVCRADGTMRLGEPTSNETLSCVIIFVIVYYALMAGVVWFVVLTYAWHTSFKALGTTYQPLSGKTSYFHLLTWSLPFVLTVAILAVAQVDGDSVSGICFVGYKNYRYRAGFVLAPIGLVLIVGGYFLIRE
Test: co-IP; 373 GBM cells overexpressing SMO-193a.a.-3XFlag and HA-tagged full-length or truncated SMO; co-IP soft RIPA lysis buffer, protein A/G agarose, Western blotting

| binding | Substance |
| --- | --- |
| no binding | C-HA (C-terminal of SMO) (human) (domain or fragment) |
| binds | N-HA (N terminal of SMO) (human) (domain or fragment) |
